# Experimental data published in PMC12065913.
# The chains behind the UniProt entries cited, without tags or fusion partners.
# UniProt P0A6F5: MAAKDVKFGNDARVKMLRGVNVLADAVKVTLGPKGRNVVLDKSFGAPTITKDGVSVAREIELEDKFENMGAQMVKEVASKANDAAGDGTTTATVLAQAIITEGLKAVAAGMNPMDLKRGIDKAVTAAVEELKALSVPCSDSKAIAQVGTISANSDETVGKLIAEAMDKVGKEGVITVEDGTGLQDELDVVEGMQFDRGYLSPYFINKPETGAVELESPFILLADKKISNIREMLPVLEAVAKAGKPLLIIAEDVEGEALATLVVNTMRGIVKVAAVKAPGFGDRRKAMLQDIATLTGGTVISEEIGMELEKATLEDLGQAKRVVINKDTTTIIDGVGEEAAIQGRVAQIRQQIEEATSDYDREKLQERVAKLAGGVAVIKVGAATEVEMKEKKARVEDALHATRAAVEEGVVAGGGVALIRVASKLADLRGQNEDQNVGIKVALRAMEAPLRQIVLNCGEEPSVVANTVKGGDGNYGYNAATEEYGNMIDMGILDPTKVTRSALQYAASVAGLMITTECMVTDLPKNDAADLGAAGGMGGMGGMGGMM
# UniProt P0A6Y8: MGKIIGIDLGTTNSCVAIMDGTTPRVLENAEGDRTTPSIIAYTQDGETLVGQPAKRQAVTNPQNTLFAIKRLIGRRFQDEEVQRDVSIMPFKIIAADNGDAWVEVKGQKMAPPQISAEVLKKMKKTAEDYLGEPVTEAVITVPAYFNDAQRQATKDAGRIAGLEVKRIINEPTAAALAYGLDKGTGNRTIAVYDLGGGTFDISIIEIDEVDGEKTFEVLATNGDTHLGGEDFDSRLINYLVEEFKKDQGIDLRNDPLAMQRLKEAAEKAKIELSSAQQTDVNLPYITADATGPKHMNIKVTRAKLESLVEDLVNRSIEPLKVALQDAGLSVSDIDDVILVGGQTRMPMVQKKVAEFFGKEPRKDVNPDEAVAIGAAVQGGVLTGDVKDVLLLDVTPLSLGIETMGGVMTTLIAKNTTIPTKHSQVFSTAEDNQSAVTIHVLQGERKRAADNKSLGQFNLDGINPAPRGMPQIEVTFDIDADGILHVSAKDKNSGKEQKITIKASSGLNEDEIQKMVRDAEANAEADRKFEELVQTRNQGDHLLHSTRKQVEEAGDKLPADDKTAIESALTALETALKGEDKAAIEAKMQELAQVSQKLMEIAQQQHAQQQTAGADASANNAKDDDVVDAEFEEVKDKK
# Results are given in words; binding and its absence hold for the method and conditions named. Some results given as binding are weak or reduced against the parent protein; the word gives no strength.
# B1: nascent LeuA (protein, UniProt P09151 1-523)
# chain: MSQQVIIFDTTLRDGEQALQASLSVKEKLQIALALERMGVDVMEVGFPVSSPGDFESVQTIARQVKNSRVCALARCVEKDIDVAAESLKVAEAFRIHTFIATSPMHIATKLRSTLDEVIERAIYMVKRARNYTDDVEFSCEDAGRTPIADLARVVEAAINAGATTINIPDTVGYTMPFEFAGIISGLYERVPNIDKAIISVHTHDDLGLAVGNSLAAVHAGARQVEGAMNGIGERAGNCSLEEVIMAIKVRKDILNVHTAINHQEIWRTSQLVSQICNMPIPANKAIVGSGAFAHSSGIHQDGVLKNRENYEIMTPESIGLNQIQLNLTSRSGRAAVKHRMDEMGYKESEYNLDNLYDAFLKLADKKGQVFDYDLEALAFIGKQQEEPEHFRLDYFSVQSGSNDIATAAVKLACGEEVKAEAANGNGPVDAVYQAINRITEYNVELVKYSLTAKGHGKDALGQVDIVANYNGRRFHGVGLATDIVESSAKAMVHVLNNIWRAAEVEKELQRKAQHNENNKETV
# B2: nascent MaeA (protein, UniProt P26616 1-565)
# chain: MEPKTKKQRSLYIPYAGPVLLEFPLLNKGSAFSMEERRNFNLLGLLPEVVETIEEQAERAWIQYQGFKTEIDKHIYLRNIQDTNETLFYRLVNNHLDEMMPVIYTPTVGAACERFSEIYRRSRGVFISYQNRHNMDDILQNVPNHNIKVIVVTDGERILGLGDQGIGGMGIPIGKLSLYTACGGISPAYTLPVVLDVGTNNQQLLNDPLYMGWRNPRITDDEYYEFVDEFIQAVKQRWPDVLLQFEDFAQKNAMPLLNRYRNEICSFNDDIQGTAAVTVGTLIAASRAAGGQLSEKKIVFLGAGSAGCGIAEMIISQTQREGLSEEAARQKVFMVDRFGLLTDKMPNLLPFQTKLVQKRENLSDWDTDSDVLSLLDVVRNVKPDILIGVSGQTGLFTEEIIREMHKHCPRPIVMPLSNPTSRVEATPQDIIAWTEGNALVATGSPFNPVVWKDKIYPIAQCNNAFIFPGIGLGVIASGASRITDEMLMSASETLAQYSPLVLNGEGMVLPELKDIQKVSRAIAFAVGKMAQQQGVAVKTSAEALQQAIDDNFWQAEYRDYRRTSI
# B3: nascent HflK (protein, UniProt P0ABC7 1-419)
# chain: MAWNQPGNNGQDRDPWGSSKPGGNSEGNGNKGGRDQGPPDLDDIFRKLSKKLGGLGGGKGTGSGGGSSSQGPRPQLGGRVVTIAAAAIVIIWAASGFYTIKEAERGVVTRFGKFSHLVEPGLNWKPTFIDEVKPVNVEAVRELAASGVMLTSDENVVRVEMNVQYRVTNPEKYLYSVTSPDDSLRQATDSALRGVIGKYTMDRILTEGRTVIRSDTQRELEETIRPYDMGITLLDVNFQAARPPEEVKAAFDDAIAARENEQQYIREAEAYTNEVQPRANGQAQRILEEARAYKAQTILEAQGEVARFAKLLPEYKAAPEITRERLYIETMEKVLGNTRKVLVNDKGGNLMVLPLDQMLKGGNAPAAKSDNGASNLLRLPPASSSTTSGASNTSSTSQGDIMDQRRANAQRNDYQRQGE
# B4: nascent GltA (protein, UniProt P0ABH7 1-427)
# chain: MADTKAKLTLNGDTAVELDVLKGTLGQDVIDIRTLGSKGVFTFDPGFTSTASCESKITFIDGDEGILLHRGFPIDQLATDSNYLEVCYILLNGEKPTQEQYDEFKTTVTRHTMIHEQITRLFHAFRRDSHPMAVMCGITGALAAFYHDSLDVNNPRHREIAAFRLLSKMPTMAAMCYKYSIGQPFVYPRNDLSYAGNFLNMMFSTPCEPYEVNPILERAMDRILILHADHEQNASTSTVRTAGSSGANPFACIAAGIASLWGPAHGGANEAALKMLEEISSVKHIPEFVRRAKDKNDSFRLMGFGHRVYKNYDPRATVMRETCHEVLKELGTKDDLLEVAMELENIALNDPYFIEKKLYPNVDFYSGIILKAMGIPSSMFTVIFAMARTVGWIAHWSEMHSDGMKIARPRQLYTGYEKRDFKSDIKR
# B5: nascent PlsB (protein, UniProt P0A7A7 1-807)
# chain: MSGWPRIYYKLLNLPLSILVKSKSIPADPAPELGLDTSRPIMYVLPYNSKADLLTLRAQCLAHDLPDPLEPLEIDGTLLPRYVFIHGGPRVFTYYTPKEESIKLFHDYLDLHRSNPNLDVQMVPVSVMFGRAPGREKGEVNPPLRMLNGVQKFFAVLWLGRDSFVRFSPSVSLRRMADEHGTDKTIAQKLARVARMHFARQRLAAVGPRLPARQDLFNKLLASRAIAKAVEDEARSKKISHEKAQQNAIALMEEIAANFSYEMIRLTDRILGFTWNRLYQGINVHNAERVRQLAHDGHELVYVPCHRSHMDYLLLSYVLYHQGLVPPHIAAGINLNFWPAGPIFRRLGAFFIRRTFKGNKLYSTVFREYLGELFSRGYSVEYFVEGGRSRTGRLLDPKTGTLSMTIQAMLRGGTRPITLIPIYIGYEHVMEVGTYAKELRGATKEKESLPQMLRGLSKLRNLGQGYVNFGEPMPLMTYLNQHVPDWRESIDPIEAVRPAWLTPTVNNIAADLMVRINNAGAANAMNLCCTALLASRQRSLTREQLTEQLNCYLDLMRNVPYSTDSTVPSASASELIDHALQMNKFEVEKDTIGDIIILPREQAVLMTYYRNNIAHMLVLPSLMAAIVTQHRHISRDVLMEHVNVLYPMLKAELFLRWDRDELPDVIDALANEMQRQGLITLQDDELHINPAHSRTLQLLAAGARETLQRYAITFWLLSANPSINRGTLEKESRTVAQRLSVLHGINAPEFFDKAVFSSLVLTLRDEGYISDSGDAEPAETMKVYQLLAELITSDVRLTIESATQGEG
# B6: nascent RecC (protein, UniProt P07648 1-1122)
# chain: MLRVYHSNRLDVLEALMEFIVERERLDDPFEPEMILVQSTGMAQWLQMTLSQKFGIAANIDFPLPASFIWDMFVRVLPEIPKESAFNKQSMSWKLMTLLPQLLEREDFTLLRHYLTDDSDKRKLFQLSSKAADLFDQYLVYRPDWLAQWETGHLVEGLGEAQAWQAPLWKALVEYTHQLGQPRWHRANLYQRFIETLESATTCPPGLPSRVFICGISALPPVYLQALQALGKHIEIHLLFTNPCRYYWGDIKDPAYLAKLLTRQRRHSFEDRELPLFRDSENAGQLFNSDGEQDVGNPLLASWGKLGRDYIYLLSDLESSQELDAFVDVTPDNLLHNIQSDILELENRAVAGVNIEEFSRSDNKRPLDPLDSSITFHVCHSPQREVEVLHDRLLAMLEEDPTLTPRDIIVMVADIDSYSPFIQAVFGSAPADRYLPYAISDRRARQSHPVLEAFISLLSLPDSRFVSEDVLALLDVPVLAARFDITEEGLRYLRQWVNESGIRWGIDDDNVRELELPATGQHTWRFGLTRMLLGYAMESAQGEWQSVLPYDESSGLIAELVGHLASLLMQLNIWRRGLAQERPLEEWLPVCRDMLNAFFLPDAETEAAMTLIEQQWQAIIAEGLGAQYGDAVPLSLLRDELAQRLDQERISQRFLAGPVNICTLMPMRSIPFKVVCLLGMNDGVYPRQLAPLGFDLMSQKPKRGDRSRRDDDRYLFLEALISAQQKLYISYIGRSIQDNSERFPSVLVQELIDYIGQSHYLPGDEALNCDESEARVKAHLTCLHTRMPFDPQNYQPGERQSYAREWLPAASQAGKAHSEFVQPLPFTLPETVPLETLQRFWAHPVRAFFQMRLQVNFRTEDSEIPDTEPFILEGLSRYQINQQLLNALVEQDDAERLFRRFRAAGDLPYGAFGEIFWETQCQEMQQLADRVIACRQPGQSMEIDLACNGVQITGWLPQVQPDGLLRWRPSLLSVAQGMQLWLEHLVYCASGGNGESRLFLRKDGEWRFPPLAAEQALHYLSQLIEGYREGMSAPLLVLPESGGAWLKTCYDAQNDAMLDDDSTLQKARTKFLQAYEGNMMVRGEGDDIWYQRLWRQLTPETMEAIVEQSQRFLLPLFRFNQS
# B7: nascent ValS (protein, UniProt P07118 1-951)
# chain: MEKTYNPQDIEQPLYEHWEKQGYFKPNGDESQESFCIMIPPPNVTGSLHMGHAFQQTIMDTMIRYQRMQGKNTLWQVGTDHAGIATQMVVERKIAAEEGKTRHDYGREAFIDKIWEWKAESGGTITRQMRRLGNSVDWERERFTMDEGLSNAVKEVFVRLYKEDLIYRGKRLVNWDPKLRTAISDLEVENRESKGSMWHIRYPLADGAKTADGKDYLVVATTRPETLLGDTGVAVNPEDPRYKDLIGKYVILPLVNRRIPIVGDEHADMEKGTGCVKITPAHDFNDYEVGKRHALPMINILTFDGDIRESAQVFDTKGNESDVYSSEIPAEFQKLERFAARKAVVAAVDALGLLEEIKPHDLTVPYGDRGGVVIEPMLTDQWYVRADVLAKPAVEAVENGDIQFVPKQYENMYFSWMRDIQDWCISRQLWWGHRIPAWYDEAGNVYVGRNEDEVRKENNLGADVVLRQDEDVLDTWFSSALWTFSTLGWPENTDALRQFHPTSVMVSGFDIIFFWIARMIMMTMHFIKDENGKPQVPFHTVYMTGLIRDDEGQKMSKSKGNVIDPLDMVDGISLPELLEKRTGNMMQPQLADKIRKRTEKQFPNGIEPHGTDALRFTLAALASTGRDINWDMKRLEGYRNFCNKLWNASRFVLMNTEGQDCGFNGGEMTLSLADRWILAEFNQTIKAYREALDSFRFDIAAGILYEFTWNQFCDWYLELTKPVMNGGTEAELRGTRHTLVTVLEGLLRLAHPIIPFITETIWQRVKVLCGITADTIMLQPFPQYDASQVDEAALADTEWLKQAIVAVRNIRAEMNIAPGKPLELLLRGCSADAERRVNENRGFLQTLARLESITVLPADDKGPVSVTKIIDGAELLIPMAGLINKEDELARLAKEVAKIEGEISRIENKLANEGFVARAPEAVIAKEREKLEGYAEAKAKLIEQQAVIAAL
# Columns and labels:
# [1] = target: GroEL (E. coli (endogenous in MC4100)) (UniProt P0A6F5); assay: selective ribosome profiling (immunoprecipitation of chaperone-bound ribosome-nascent chain complexes, sequencing of the mRNA footprints); GroEL immunoprecipitated with anti-GroEL antibody from ATP-depleted lysate cross-linked with 60 mM EDC; WT, Δtig and ΔdnaK strain backgrounds; selected translatome normalised by the total translatome
# [2] = target: DnaK (E. coli (endogenous in MC4100)) (UniProt P0A6Y8); assay: selective ribosome profiling (immunoprecipitation of chaperone-bound ribosome-nascent chain complexes, sequencing of the mRNA footprints); DnaK immunoprecipitated with anti-DnaK antibody on Dynabeads from ATP-depleted (hexokinase) lysate after MNase digest and sucrose cushion; selected translatome normalised by the total translatome
# [3] = target: DnaK (E. coli (endogenous in E. coli cells)) (UniProt P0A6Y8); assay: selective ribosome profiling (SeRP); immunoprecipitation of DnaK (anti-DnaK antibody on Dynabeads) with ribosome-nascent chain complexes; ATP depleted with hexokinase; MNase digest, sucrose cushion; ribosome footprints sequenced
Binder,binding [1],also measured
B1,binds,
B2,binds,
B3,binds,
B4,binds,
B5,,binding [2]: binds
B6,,binding [2]: binds
B7,,binding [3]: binds
